Experiment [1] deals with Pex14p_(213-341) (yeast) (UniProt P53112). Put plainly: native MS.
Experiment [2] has the same target. As to the kind of experiment: cross-linking.
Experiment [3] deals with Pex14p_(1-95) (yeast) (UniProt P53112). Put plainly: native MS.
The target is the same in experiment [4]. As to the kind of experiment: cross-linking.
The target of experiment [5] is T1, Pex17p_(167-199) Gal4p fusion (yeast) (UniProt P40155).
T1 sequence: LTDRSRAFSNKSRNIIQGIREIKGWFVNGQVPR
As to the kind of experiment: two-hybrid.

In experiment [6] the target is T2, Pex17p_(1-167)TPA (yeast) (UniProt P40155).
T2 sequence: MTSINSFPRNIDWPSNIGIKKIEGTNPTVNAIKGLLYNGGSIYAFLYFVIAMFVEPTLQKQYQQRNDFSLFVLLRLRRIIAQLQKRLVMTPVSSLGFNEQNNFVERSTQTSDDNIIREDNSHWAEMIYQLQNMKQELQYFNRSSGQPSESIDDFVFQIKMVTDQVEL
Put plainly: co-IP.

The target of experiment [7] is T3, Pex17pTPA (yeast) (UniProt P40155).
T3 sequence: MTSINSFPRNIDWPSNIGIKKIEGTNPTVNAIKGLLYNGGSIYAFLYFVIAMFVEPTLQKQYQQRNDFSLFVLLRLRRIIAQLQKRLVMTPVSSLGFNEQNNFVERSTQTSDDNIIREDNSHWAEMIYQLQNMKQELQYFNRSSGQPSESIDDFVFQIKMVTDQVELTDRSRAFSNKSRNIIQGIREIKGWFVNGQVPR
As to the kind of experiment: co-IP.

For experiment [8], the target named is T4, Pex14p-TPA (yeast) (UniProt P53112).
T4 sequence: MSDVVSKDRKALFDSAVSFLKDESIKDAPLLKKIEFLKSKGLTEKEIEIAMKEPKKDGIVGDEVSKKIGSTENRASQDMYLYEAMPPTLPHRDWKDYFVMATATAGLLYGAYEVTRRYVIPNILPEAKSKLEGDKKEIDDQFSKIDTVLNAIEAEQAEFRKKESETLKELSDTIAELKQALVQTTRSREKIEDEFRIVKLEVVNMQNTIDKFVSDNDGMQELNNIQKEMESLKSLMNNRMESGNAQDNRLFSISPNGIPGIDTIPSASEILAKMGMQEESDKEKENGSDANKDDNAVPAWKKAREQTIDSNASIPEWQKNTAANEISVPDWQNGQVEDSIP
Put plainly: co-IP.

These are yes or no findings as the source states them, for the method shown. For some of these results: In cells and extracts the contact can be indirect. Some results given as binding are weak or reduced against the parent protein; the word gives no strength. For some of these results: Tags and fused reporters may be left off the sequences shown.

B1: Pex14p_(213-341) (domain or fragment, UniProt P53112 213-341)
chain: VSDNDGMQELNNIQKEMESLKSLMNNRMESGNAQDNRLFSISPNGIPGIDTIPSASEILAKMGMQEESDKEKENGSDANKDDNAVPAWKKAREQTIDSNASIPEWQKNTAANEISVPDWQNGQVEDSIP
Consider B1, for which the binding result in experiment [1] and in experiment [2] was “no binding” each time.

B2: Pex14p_(1-95) (domain or fragment, UniProt P53112 1-95)
chain: MSDVVSKDRKALFDSAVSFLKDESIKDAPLLKKIEFLKSKGLTEKEIEIAMKEPKKDGIVGDEVSKKIGSTENRASQDMYLYEAMPPTLPHRDWK
On to B2, for which the binding result in experiment [3] and in experiment [4] was “no binding” throughout.

B3: full-length Pex14p Gal4p fusion (protein, UniProt P53112 1-341)
chain: T4 sequence
In the case of B3, the binding result in experiment [5] is reported as “binds”.

B4: Pex14p (endogenous) (protein, UniProt P53112 1-341)
chain: T4 sequence
For the molecule B4, the binding entry in experiment [6] and in experiment [7] was “binds” each time.

B5: His6-Pex17p (natural protein, yeast, UniProt P40155 1-199, looked up)
chain: T3 sequence
As to B5, the binding result in experiment [8] was “binds”.

B6: Pex12p (protein, UniProt Q04370 1-399)
chain: MSFYSNLPSAGQSSRGSSTSGRNGVGLEPLYPTIFEIMSSQEIDSLLPASIRYLLANHLVANFPNRYTLRLNKYFFEWFQAIKGFVEWYHLKTYNSTFIDRFYGLQLFSSRDRNLALTQCLNPKGQSEWPQGLQLNQQQKSVIFLEKIILPYITAKLDEILEKISMNNIFSSDETENKWPKRAFLRIYPFIKKLLALSNLLVKLLFLTKRTGSVSLLQYLFKIEYTTVRPLSSELSGLKETKGMDNRLRKTNISSIFALMQGQLSIIPRFLTFMGSQFFPTFIFVLRVYQWWTTQDMTTKLQKRVNDLDEDIPRPPFSSHSDKTEDKEGVSEACPVCEKTVQNPCVLETGYVACYPCAISYLVNNEGHCPVTNKKLLGCTYNKHTNKWEVVTGIRKLLI
As for B6, the binding entry in experiment [6] and in experiment [7] was “binds” throughout.

B7: Pex13p (protein, UniProt P80667 1-386)
chain: MSSTAVPRPKPWETSASLEEPQRNAQSLSAMMTSNQQDSRPTEESNNSNSASESAPEVLPRPAALNSSGTYGESNTIPGIYGNSNYGIPYDNNPYSMNSIYGNSIGRYGYGGSYYGNNYGSFYGGGYGAGAGYGMNNGSGLGESTKATFQLIESLIGAVTGFAQMLESTYMATHNSFFTMISVAEQFGNLKEMLGSFFGIFAIMKFLKKILYRATKGRLGIPPKNFAESEGSKNKLIEDFQKFNDSGTINSNEKATRRKISWKPLLFFLMAVFGFPYLLNKFITKLQTSGTIRASQGNGSEPIDPSKLEFARALYDFVPENPEMEVALKKGDLMAILSKKDPLGRDSDWWKVRTKNGNIGYIPYNYIEIIKRRKKIEHVDDETRTH
B7: the binding entry in experiment [6] and in experiment [7] was “binds” each time.

B8: Pex10p (protein, UniProt Q05568 1-337)
chain: MKNDNKLQKEALMRLSQLRFPFADAPSIVQAHQKDEQIQGLLIMKVTELCKLIKSQLFVNSYPKELSIFAKLLYLLFTTGRRGRTLGEEYVDLTYTNRKGTRLAGRLKMIVFAFAYPLCPYFITKLYKKIMKNNKESKIEDTESVAAFCKGLLDFILDVHMTLFYFKGAFYSISKRIFGMRYVFKHILSKNEANFREEGSQKYKVLGYILLAQNVMKWYPVLTSTLGSWIYGRKRTNDSITRSSVGLQERSEHESIEGIPKESQLTHINLSDKNQLPFIPEASRKCILCLMNMSDPSCAPCGHLFCWSCLMSWCKERPECPLCRQHCQPQEILVLRQ
With B8, the binding result in experiment [6] and in experiment [7] was “binds” each time.

B9: PTS1-receptor Pex5p (receptor, UniProt P35056 1-612)
chain: MDVGSCSVGNNPLAQLHKHTQQNKSLQFNQKNNGRLNESPLQGTNKPGISEAFISNVNAISQENMANMQRFINGEPLIDDKRRMEIGPSSGRLPPFSNVHSLQTSANPTQIKGVNDISHWSQEFQGSNSIQNRNADTGNSEKAWQRGSTTASSRFQYPNTMMNNYAYASMNSLSGSRLQSPAFMNQQQSGRSKEGVNEQEQQPWTDQFEKLEKEVSENLDINDEIEKEENVSEVEQNKPETVEKEEGVYGDQYQSDFQEVWDSIHKDAEEVLPSELVNDDLNLGEDYLKYLGGRVNGNIEYAFQSNNEYFNNPNAYKIGCLLMENGAKLSEAALAFEAAVKEKPDHVDAWLRLGLVQTQNEKELNGISALEECLKLDPKNLEAMKTLAISYINEGYDMSAFTMLDKWAETKYPEIWSRIKQQDDKFQKEKGFTHIDMNAHITKQFLQLANNLSTIDPEIQLCLGLLFYTKDDFDKTIDCFESALRVNPNDELMWNRLGASLANSNRSEEAIQAYHRALQLKPSFVRARYNLAVSSMNIGCFKEAAGYLLSVLSMHEVNTNNKKGDVGSLLNTYNDTVIETLKRVFIAMNRDDLLQEVKPGMDLKRFKGEFSF
B9: the binding entry in experiment [6] and in experiment [7] was “binds” throughout.

(Values after publication doi:10.1101/854497 (bioRxiv, 2020).)
